Test results from doi:10.1101/2025.02.18.638898.
These are yes or no findings as the source states them, for the method shown. In cells and extracts the contact can be indirect. Some binding calls cover weakened binding; strength is not graded here.

Chains of the proteins cited; added tags and fusions are not shown.
UniProt Q15910: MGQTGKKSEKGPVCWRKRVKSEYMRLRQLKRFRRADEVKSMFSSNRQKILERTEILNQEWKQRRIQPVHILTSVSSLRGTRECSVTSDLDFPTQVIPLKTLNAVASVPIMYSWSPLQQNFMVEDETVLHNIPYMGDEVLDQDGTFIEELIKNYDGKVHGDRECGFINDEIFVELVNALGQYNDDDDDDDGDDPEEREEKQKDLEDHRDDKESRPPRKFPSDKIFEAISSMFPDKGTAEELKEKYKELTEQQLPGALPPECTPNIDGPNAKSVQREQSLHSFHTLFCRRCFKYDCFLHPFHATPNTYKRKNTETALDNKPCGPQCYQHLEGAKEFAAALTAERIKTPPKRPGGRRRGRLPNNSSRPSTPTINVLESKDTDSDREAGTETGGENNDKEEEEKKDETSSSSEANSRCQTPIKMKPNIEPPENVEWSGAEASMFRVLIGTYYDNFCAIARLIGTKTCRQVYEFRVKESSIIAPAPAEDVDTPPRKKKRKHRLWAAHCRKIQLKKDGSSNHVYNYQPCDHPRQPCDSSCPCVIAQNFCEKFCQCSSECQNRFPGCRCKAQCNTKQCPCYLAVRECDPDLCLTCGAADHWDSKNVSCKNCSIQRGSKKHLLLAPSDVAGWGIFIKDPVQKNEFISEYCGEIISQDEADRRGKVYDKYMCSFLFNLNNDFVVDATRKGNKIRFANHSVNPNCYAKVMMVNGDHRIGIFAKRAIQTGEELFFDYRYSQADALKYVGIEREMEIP
UniProt P42684: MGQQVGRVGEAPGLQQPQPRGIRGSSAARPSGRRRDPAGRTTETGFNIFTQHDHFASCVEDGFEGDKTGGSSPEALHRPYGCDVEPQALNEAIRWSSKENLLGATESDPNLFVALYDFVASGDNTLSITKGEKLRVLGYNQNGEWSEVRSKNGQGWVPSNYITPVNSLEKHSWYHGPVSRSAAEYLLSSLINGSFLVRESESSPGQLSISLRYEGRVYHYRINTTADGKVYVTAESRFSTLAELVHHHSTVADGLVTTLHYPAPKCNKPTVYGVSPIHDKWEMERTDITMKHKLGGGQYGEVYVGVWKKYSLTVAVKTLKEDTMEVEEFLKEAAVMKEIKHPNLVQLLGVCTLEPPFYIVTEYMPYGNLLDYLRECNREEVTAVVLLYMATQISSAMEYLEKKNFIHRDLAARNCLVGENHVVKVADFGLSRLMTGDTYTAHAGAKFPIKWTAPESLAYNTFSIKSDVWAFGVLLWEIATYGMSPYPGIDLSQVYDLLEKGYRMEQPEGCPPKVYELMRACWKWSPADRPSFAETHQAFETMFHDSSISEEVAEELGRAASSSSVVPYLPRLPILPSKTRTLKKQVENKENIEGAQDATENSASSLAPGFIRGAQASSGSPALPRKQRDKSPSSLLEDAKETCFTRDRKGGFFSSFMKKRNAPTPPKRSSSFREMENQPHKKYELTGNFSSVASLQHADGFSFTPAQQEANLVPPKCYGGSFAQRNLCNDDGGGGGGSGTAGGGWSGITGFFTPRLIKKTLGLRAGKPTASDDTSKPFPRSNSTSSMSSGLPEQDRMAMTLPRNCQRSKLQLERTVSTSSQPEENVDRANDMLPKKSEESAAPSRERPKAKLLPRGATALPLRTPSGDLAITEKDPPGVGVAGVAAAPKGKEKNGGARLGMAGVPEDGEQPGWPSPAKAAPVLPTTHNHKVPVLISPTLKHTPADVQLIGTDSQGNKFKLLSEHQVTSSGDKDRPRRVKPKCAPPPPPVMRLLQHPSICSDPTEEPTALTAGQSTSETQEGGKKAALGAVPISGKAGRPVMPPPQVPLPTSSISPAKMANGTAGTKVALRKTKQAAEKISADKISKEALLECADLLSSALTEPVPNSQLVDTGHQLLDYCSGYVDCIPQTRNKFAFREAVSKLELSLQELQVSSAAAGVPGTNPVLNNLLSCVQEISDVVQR
UniProt P00519: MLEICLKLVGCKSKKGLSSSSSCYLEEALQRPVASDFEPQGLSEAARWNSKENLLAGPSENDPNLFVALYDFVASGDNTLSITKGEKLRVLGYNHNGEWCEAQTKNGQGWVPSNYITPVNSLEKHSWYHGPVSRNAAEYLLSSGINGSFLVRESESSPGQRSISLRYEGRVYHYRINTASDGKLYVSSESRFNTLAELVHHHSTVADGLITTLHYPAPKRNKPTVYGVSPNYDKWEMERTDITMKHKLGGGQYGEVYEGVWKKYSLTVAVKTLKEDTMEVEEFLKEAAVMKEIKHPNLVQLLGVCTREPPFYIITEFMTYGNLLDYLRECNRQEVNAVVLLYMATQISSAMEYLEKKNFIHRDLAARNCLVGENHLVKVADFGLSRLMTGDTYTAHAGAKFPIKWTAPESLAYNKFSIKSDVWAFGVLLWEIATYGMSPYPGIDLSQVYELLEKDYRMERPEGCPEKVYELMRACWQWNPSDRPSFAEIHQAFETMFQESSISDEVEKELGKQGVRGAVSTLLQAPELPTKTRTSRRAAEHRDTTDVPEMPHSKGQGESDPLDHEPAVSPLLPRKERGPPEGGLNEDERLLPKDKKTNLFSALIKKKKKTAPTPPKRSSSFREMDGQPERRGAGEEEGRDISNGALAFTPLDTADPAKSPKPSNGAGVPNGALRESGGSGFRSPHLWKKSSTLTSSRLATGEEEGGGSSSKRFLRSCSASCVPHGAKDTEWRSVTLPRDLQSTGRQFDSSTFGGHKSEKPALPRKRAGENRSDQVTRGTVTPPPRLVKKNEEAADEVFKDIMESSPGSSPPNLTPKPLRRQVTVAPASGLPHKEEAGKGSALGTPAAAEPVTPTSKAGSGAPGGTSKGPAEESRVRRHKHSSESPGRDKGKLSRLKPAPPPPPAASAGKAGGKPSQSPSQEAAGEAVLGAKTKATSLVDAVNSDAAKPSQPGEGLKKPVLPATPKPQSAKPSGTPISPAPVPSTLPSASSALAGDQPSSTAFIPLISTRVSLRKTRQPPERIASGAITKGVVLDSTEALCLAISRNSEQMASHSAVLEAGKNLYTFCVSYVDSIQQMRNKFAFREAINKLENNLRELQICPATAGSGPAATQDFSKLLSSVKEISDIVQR
UniProt Q15022: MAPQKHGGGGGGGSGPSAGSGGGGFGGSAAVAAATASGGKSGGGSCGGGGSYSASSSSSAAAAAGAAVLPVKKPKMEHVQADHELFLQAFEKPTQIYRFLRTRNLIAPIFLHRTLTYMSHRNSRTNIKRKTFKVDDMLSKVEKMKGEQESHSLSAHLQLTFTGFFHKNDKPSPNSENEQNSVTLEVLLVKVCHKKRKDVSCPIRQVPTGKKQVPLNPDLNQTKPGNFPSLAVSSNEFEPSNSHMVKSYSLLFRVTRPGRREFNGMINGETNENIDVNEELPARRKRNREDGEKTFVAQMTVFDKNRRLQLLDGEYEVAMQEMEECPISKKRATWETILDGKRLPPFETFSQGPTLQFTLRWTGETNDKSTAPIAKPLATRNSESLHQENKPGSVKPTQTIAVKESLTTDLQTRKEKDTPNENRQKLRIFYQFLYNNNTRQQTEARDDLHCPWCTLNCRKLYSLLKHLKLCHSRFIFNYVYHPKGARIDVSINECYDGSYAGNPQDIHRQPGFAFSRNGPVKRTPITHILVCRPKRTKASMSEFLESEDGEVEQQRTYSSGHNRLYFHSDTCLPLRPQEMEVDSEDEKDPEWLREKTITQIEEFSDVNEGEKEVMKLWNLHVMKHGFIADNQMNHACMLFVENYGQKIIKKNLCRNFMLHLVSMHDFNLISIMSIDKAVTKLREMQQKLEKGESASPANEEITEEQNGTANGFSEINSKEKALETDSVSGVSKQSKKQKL

Assays:
[1] = biological target: endogenous EZH2 (SUM159 cells) (human (endogenous in SUM159)) (UniProt Q15910); experiment: co-IP
[2] = biological target: ABL2 eGFP wildtype (pN1-ABL2-eGFP WT) (UniProt P42684); experiment: co-IP

binding [1]	binding [2]	Substance
no binding	–	endogenous ABL1 (SUM159 cells) (from UniProt P00519 1-1130)
binds	–	endogenous ABL2 (SUM159 cells) (from UniProt P42684 1-1182)
–	binds	endogenous SUZ12 (HEK293T cells) (from UniProt Q15022 1-739)
